Results: patent publication US5885833

What was measured:
[1] = tested on: E2F4-DP1-p107 complex (p107 aa 744-2460 as printed); assay: EMSA; conditions: purified recombinant protein, protein details: GST fusion, E. coli, label: 32P
[2] = tested on: E2F4-DP1-p107 complex (p107 aa 744-2460 as printed); assay: footprint; conditions: DMS methylation protection, indistinguishable from E2F4-DP1; purified recombinant protein; protein details: GST fusion, E. coli; label: 32P
[3] = tested on: E2F1-DP1-pRb complex (pRb aa 300-928); assay: EMSA; conditions: strength comparable to other E2F complexes; purified recombinant protein; protein details: GST fusion, E. coli; label: 32P
[4] = tested on: HeLa nuclear protein(s) binding B-myb CHR (Homo sapiens); assay: EMSA; conditions: HeLa nuclear extract; protein unidentified; probe not given; protein in an extract; protein details: HeLa nuclear extract

## GATCGACTAGTTTCGCGCCCTTTCTACTAG (double strand) [E2a adenovirus promoter probe]
[1]; similar affinity to B-myb site
  binding result: binds

## GGCGCCGACGCACTTGGCGGGAGATAGGAAAGTGGTTCTGTG (double strand) [B-myb E2F site probe]
[2]
  binding result: binds
[3]
  binding result: binds
[1]; strength comparable to other E2F complexes, same DMS footprint as E2F4-DP1
  binding result: binds

## TAGGAAA (double strand) [B-myb CHR]
[4]
  binding result: binds

For at least one entry, the source does not settle the construct or the ends of the probe. For some assays here: At least one result comes from cells or an extract, where the contact may be indirect.
